Results are given in words; binding and its absence hold for the method and conditions named. In cells and extracts the contact can be indirect. Some entries that bind do so weakly or less than the wild type. For some assays here: Where a sequence is shown, tags or fusion partners need not be part of it. One block for each binder: values may come before it.
What was measured:
[1] = biological target: T1, Rfc3 (Saccharomyces cerevisiae) (UniProt P38629); test: anti-FLAG co-IP, LC-MS/MS; pair by Table 2
T1 sequence (looked up): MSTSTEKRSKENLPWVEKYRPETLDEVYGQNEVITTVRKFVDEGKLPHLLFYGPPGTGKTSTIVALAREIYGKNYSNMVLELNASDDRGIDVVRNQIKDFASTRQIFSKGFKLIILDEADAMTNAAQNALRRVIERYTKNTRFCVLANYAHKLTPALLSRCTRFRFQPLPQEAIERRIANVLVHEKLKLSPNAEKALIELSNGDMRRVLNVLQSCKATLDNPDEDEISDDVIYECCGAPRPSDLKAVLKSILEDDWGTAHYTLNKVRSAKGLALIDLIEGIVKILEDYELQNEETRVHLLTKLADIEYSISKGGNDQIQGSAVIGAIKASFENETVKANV

Sequences of proteins named here, by UniProt entry; tags and fusion partners are left off.
UniProt P48510: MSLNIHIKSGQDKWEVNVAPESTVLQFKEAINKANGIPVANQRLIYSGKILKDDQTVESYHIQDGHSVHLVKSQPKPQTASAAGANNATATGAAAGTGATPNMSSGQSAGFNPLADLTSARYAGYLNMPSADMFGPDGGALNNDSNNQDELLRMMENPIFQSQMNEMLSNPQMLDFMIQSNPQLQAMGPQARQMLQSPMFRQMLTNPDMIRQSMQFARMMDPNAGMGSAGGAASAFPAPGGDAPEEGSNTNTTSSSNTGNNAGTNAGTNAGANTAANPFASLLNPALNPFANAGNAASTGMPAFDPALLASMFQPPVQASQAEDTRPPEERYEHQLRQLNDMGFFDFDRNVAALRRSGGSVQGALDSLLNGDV
UniProt P23594: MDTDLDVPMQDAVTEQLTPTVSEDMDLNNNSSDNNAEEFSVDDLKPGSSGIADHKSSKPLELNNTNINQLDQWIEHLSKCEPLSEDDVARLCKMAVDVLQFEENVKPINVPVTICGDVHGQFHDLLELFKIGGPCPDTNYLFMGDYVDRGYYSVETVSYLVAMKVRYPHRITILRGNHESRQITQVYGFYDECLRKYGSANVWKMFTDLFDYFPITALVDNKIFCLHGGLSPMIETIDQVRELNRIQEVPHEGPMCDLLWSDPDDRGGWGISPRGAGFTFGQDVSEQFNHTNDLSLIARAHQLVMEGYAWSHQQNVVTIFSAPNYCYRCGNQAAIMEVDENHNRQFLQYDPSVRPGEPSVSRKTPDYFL
UniProt P23595: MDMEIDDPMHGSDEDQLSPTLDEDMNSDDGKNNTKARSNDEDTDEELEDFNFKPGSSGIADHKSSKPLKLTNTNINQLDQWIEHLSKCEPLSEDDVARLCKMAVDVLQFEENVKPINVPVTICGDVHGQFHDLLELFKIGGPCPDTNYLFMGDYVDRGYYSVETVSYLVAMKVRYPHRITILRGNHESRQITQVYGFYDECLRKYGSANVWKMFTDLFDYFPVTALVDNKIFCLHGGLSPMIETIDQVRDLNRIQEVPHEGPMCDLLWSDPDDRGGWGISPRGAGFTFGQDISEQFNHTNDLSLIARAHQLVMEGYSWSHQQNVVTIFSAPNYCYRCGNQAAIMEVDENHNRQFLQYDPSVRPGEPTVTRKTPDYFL
UniProt P13712: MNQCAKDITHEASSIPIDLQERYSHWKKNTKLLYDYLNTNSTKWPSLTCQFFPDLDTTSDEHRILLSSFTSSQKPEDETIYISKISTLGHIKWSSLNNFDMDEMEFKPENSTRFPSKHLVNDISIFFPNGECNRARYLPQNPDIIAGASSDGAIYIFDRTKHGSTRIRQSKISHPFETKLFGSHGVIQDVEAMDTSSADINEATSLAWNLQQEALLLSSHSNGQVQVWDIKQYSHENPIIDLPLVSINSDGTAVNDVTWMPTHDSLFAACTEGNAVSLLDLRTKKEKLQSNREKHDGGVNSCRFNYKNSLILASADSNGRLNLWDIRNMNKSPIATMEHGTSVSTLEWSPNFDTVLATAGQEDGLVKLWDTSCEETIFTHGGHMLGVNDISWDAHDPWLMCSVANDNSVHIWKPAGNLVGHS

[2] = biological target: T2, Rfc4 (Saccharomyces cerevisiae) (UniProt P40339); test: anti-FLAG co-IP, LC-MS/MS; pair by Table 2
T2 sequence (looked up): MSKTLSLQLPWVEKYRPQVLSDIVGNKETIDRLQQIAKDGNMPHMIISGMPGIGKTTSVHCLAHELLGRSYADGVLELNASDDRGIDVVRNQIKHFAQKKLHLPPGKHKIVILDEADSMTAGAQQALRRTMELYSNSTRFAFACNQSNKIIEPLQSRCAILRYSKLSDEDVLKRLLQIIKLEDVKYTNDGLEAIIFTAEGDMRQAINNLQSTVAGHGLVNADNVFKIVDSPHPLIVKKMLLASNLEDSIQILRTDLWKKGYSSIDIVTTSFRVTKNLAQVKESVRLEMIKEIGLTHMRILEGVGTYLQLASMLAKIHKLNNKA

[3] = biological target: T1, Rfc3 (Saccharomyces cerevisiae); test: anti-FLAG co-IP, LC-MS/MS
[4] = biological target: T2, Rfc4 (Saccharomyces cerevisiae); test: anti-FLAG co-IP, LC-MS/MS
[5] = biological target: T3, Elc1 (Saccharomyces cerevisiae) (UniProt Q03071); test: anti-FLAG co-IP, LC-MS/MS
T3 sequence (looked up): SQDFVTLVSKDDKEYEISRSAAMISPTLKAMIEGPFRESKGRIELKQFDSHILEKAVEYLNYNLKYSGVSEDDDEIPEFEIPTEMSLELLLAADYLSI

[6] = biological target: T4, Rfc5 (Saccharomyces cerevisiae) (UniProt P38251); test: anti-FLAG co-IP, LC-MS/MS; pair by Table 2
T4 sequence (looked up): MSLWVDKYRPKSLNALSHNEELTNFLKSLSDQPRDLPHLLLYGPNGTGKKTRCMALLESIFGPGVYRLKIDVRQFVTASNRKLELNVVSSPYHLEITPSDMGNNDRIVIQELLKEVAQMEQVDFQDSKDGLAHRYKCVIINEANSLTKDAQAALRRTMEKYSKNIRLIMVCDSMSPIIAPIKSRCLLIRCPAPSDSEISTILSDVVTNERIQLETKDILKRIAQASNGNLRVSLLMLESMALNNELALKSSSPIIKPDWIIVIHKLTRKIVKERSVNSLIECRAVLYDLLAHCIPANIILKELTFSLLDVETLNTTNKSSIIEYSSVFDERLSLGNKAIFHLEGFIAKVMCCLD

[7] = biological target: T4, Rfc5 (Saccharomyces cerevisiae); test: anti-FLAG co-IP, LC-MS/MS
[8] = biological target: Dsk2 (Saccharomyces cerevisiae) (UniProt P48510); test: anti-FLAG co-IP, LC-MS/MS
[9] = biological target: T5, Rad23 (Saccharomyces cerevisiae) (UniProt P32628); test: anti-FLAG co-IP, LC-MS/MS
T5 sequence (looked up): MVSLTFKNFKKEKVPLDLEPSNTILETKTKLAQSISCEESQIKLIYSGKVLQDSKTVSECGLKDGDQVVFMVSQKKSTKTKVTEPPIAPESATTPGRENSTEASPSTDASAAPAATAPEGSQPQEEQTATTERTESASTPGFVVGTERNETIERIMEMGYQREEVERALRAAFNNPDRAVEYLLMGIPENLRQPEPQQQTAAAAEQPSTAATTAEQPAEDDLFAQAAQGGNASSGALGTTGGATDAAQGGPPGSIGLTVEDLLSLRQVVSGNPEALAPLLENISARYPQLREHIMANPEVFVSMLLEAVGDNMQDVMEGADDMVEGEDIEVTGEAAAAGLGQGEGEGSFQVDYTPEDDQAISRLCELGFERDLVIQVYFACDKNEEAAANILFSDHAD

[10] = biological target: Pph21 (Saccharomyces cerevisiae) (UniProt P23594); test: anti-FLAG co-IP, LC-MS/MS
[11] = biological target: Pph22 (Saccharomyces cerevisiae) (UniProt P23595); test: anti-FLAG co-IP, LC-MS/MS
[12] = biological target: Msi1 (Saccharomyces cerevisiae) (UniProt P13712); test: anti-FLAG co-IP, LC-MS/MS

binding [1]: binds | binding [2]: binds | binding [3]: binds | binding [4]: binds
B1: Rfc2 (protein, Saccharomyces cerevisiae, UniProt P40348 1-353, looked up)
chain: MFEGFGPNKKRKISKLAAEQSLAQQPWVEKYRPKNLDEVTAQDHAVTVLKKTLKSANLPHMLFYGPPGTGKTSTILALTKELYGPDLMKSRILELNASDERGISIVREKVKNFARLTVSKPSKHDLENYPCPPYKIIILDEADSMTADAQSALRRTMETYSGVTRFCLICNYVTRIIDPLASRCSKFRFKALDASNAIDRLRFISEQENVKCDDGVLERILDISAGDLRRGITLLQSASKGAQYLGDGKNITSTQVEELAGVVPHDILIEIVEKVKSGDFDEIKKYVNTFMKSGWSAASVVNQLHEYYITNDNFDTNFKNQISWLLFTTDSRLNNGTNEHIQLLNLLVKISQL

binding [5]: binds
B2: Rad7 (protein, Saccharomyces cerevisiae, UniProt P06779 1-565, looked up)
chain: MYRSRNRPKRGGENEVKGPNSALTQFLREEGISAENIKQKWYQRQSKKQEDATDEKKGKAEDDSFTAEISRVVEDEEIDEIGTGSGTETERAQVSYDARMKLVPADSDEEEYETSHISDTPVSLSSANDRESLTKKRQNTAKIIQNRRRKRKRAADLLDRRVNKVSSLQSLCITKISENISKWQKEADESSKLVFNKLRDVLGGVSTANLNNLAKALSKNRALNDHTLQLFLKTDLKRLTFSDCSKISFDGYKTLAIFSPHLTELSLQMCGQLNHESLLYIAEKLPNLKSLNLDGPFLINEDTWEKFFVIMKGRLEEFHISNTHRFTDKSLSNLLINCGSTLVSLGLSRLDSISNYALLPQYLVNDEFHSLCIEYPFNEEDVNDEIIINLLGQIGRTLRKLVLNGCIDLTDSMIINGLTAFIPEKCPLEVLSLEESDQITTDSLSYFFSKVELNNLIECSFRRCLQLGDMAIIELLLNGARDSLRSLNLNSLKELTKEAFVALACPNLTYLDLGFVRCVDDSVIQMLGEQNPNLTVIDVFGDNLVTEKATMRPGLTLIGRQSDSI

binding [6]: binds | binding [2]: binds | binding [7]: binds | binding [4]: binds
B3: Rfc3 (protein, Saccharomyces cerevisiae, UniProt P38629 1-340, looked up)
chain: MSTSTEKRSKENLPWVEKYRPETLDEVYGQNEVITTVRKFVDEGKLPHLLFYGPPGTGKTSTIVALAREIYGKNYSNMVLELNASDDRGIDVVRNQIKDFASTRQIFSKGFKLIILDEADAMTNAAQNALRRVIERYTKNTRFCVLANYAHKLTPALLSRCTRFRFQPLPQEAIERRIANVLVHEKLKLSPNAEKALIELSNGDMRRVLNVLQSCKATLDNPDEDEISDDVIYECCGAPRPSDLKAVLKSILEDDWGTAHYTLNKVRSAKGLALIDLIEGIVKILEDYELQNEETRVHLLTKLADIEYSISKGGNDQIQGSAVIGAIKASFENETVKANV

binding [8]: binds | binding [9]: binds
B4: Ufd2 (protein, Saccharomyces cerevisiae, UniProt P54860 1-961, looked up)
chain: MTAIEDILQITTDPSDTRGYSLLKSEEVPQGSTLGVDFIDTLLLYQLTENEKLDKPFEYLNDCFRRNQQQKRITKNKPNAESLHSTFQEIDRLVIGYGVVALQIENFCMNGAFINYITGIVSNVNSYTDFLSQIIQRAILEGTALDLLNAVFPTLLEYCNKHVSHFDLNESVIYNNVLTIFELFVTFKPIAEIFTKIDGFFADYSCKPQDFERKTILGPILSLSPIEAAVAIRNYGDNLLRSKQQTAMIHESLQAEHKVVIDRLFFIVDKLVRGSLNSRTDMISYFAHIANKNHLRRADHPPFKELSSNGFMSNITLLLVRFSQPFLDISYKKIDKIDANYFNNPSLFIDLSGETRLNSDFKEADAFYDKNRKTADSKPNFISDCFFLTLTYLHYGLGGTLSFEEKMGSEIKALKEEIEKVKKIAANHDVFARFITAQLSKMEKALKTTESLRFALQGFFAHRSLQLEVFDFICGASTFLIRVVDPEHEFPFKQIKLPLIPDQIGVENVDNADFLRAHAPVPFKYYPEFVVEGPVNYSLYISKYQTSPIFRNPRLGSFVEFTTMVLRCPELVSNPHLKGKLVQLLSVGAMPLTDNSPGFMMDIFEHDELVNKNLLYALLDFYVIVEKTGSSSQFYDKFNSRYSISIILEELYYKIPSYKNQLIWQSQNNADFFVRFVARMLNDLTFLLDEGLSNLAEVHNIQNELDNRARGAPPTREEEDKELQTRLASASRQAKSSCGLADKSMKLFEIYSKDIPAAFVTPEIVYRLASMLNYNLESLVGPKCGELKVKDPQSYSFNPKDLLKALTTVYINLSEQSEFISAVAKDERSFNRNLFVRAVDILGRKTGLASPEFIEKLLNFANKAEEQRKADEEEDLEYGDVPDEFLDPLMYTIMKDPVILPASKMNIDRSTIKAHLLSDSTDPFNRMPLKLEDVTPNEELRQKILCFKKQKKEEAKHKASE

binding [10]: binds | binding [11]: binds
B5: Cdc55 (protein, Saccharomyces cerevisiae, UniProt Q00362 1-526, looked up)
chain: MAQNNFDFKFSQCFGDKADIVVTEADLITAVEFDYTGNYLATGDKGGRVVLFERSNSRHCEYKFLTEFQSHDAEFDYLKSLEIEEKINEIKWLRPTQRSHFLLSTNDKTIKLWKVYEKNIKLVSQNNLTEGVTFAKKGKPDNHNSRGGSVRAVLSLQSLKLPQLSQHDKIIAATPKRIYSNAHTYHINSISLNSDQETFLSADDLRINLWNLDIPDQSFNIVDIKPTNMEELTEVITSAEFHPQECNLFMYSSSKGTIKLCDMRQNSLCDNKTKTFEEYLDPINHNFFTEITSSISDIKFSPNGRYIASRDYLTVKIWDVNMDNKPLKTINIHEQLKERLSDTYENDAIFDKFEVNFSGDSSSVMTGSYNNNFMIYPNVVTSGDNDNGIVKTFDEHNAPNSNSNKNIHNSIQNKDSSSSGNSHKRRSNGRNTGMVGSSNSSRSSIAGGEGANSEDSGTEMNEIVLQADKTAFRNKRYGSLAQRSARNKDWGDDIDFKKNILHFSWHPRENSIAVAATNNLFIFSAL

binding [12]: binds
B6: Rad1 (protein, Saccharomyces cerevisiae, UniProt P06777 1-1100, looked up)
chain: MSQLFYQGDSDDELQEELTRQTTQASQSSKIKNEDEPDDSNHLNEVENEDSKVLDDDAVLYPLIPNEPDDIETSKPNINDIRPVDIQLTLPLPFQQKVVENSLITEDALIIMGKGLGLLDIVANLLHVLATPTSINGQLKRALVLVLNAKPIDNVRIKEALEELSWFSNTGKDDDDTAVESDDELFERPFNVVTADSLSIEKRRKLYISGGILSITSRILIVDLLSGIVHPNRVTGMLVLNADSLRHNSNESFILEIYRSKNTWGFIKAFSEAPETFVMEFSPLRTKMKELRLKNVLLWPRFRVEVSSCLNATNKTSHNKVIEVKVSLTNSMSQIQFGLMECLKKCIAELSRKNPELALDWWNMENVLDINFIRSIDSVMVPNWHRISYESKQLVKDIRFLRHLLKMLVTSDAVDFFGEIQLSLDANKPSVSRKYSESPWLLVDEAQLVISYAKKRIFYKNEYTLEENPKWEQLIHILHDISHERMTNHLQGPTLVACSDNLTCLELAKVLNASNKKRGVRQVLLNKLKWYRKQREETKKLVKEVQSQDTFPENATLNVSSTFSKEQVTTKRRRTRGASQVAAVEKLRNAGTNVDMEVVFEDHKLSEEIKKGSGDDLDDGQEENAANDSKIFEIQEQENEILIDDGDAEFDNGELEYVGDLPQHITTHFNKDLWAEHCNEYEYVDRQDEILISTFKSLNDNCSLQEMMPSYIIMFEPDISFIRQIEVYKAIVKDLQPKVYFMYYGESIEEQSHLTAIKREKDAFTKLIRENANLSHHFETNEDLSHYKNLAERKLKLSKLRKSNTRNAGGQQGFHNLTQDVVIVDTREFNASLPGLLYRYGIRVIPCMLTVGDYVITPDICLERKSISDLIGSLQNNRLANQCKKMLKYYAYPTLLIEFDEGQSFSLEPFSERRNYKNKDISTVHPISSKLSQDEIQLKLAKLVLRFPTLKIIWSSSPLQTVNIILELKLGREQPDPSNAVILGTNKVRSDFNSTAKGLKDGDNESKFKRLLNVPGVSKIDYFNLRKKIKSFNKLQKLSWNEINELINDEDLTDRIYYFLRTEKEEQEQESTDENLESPGKTTDDNALHDHHNDVPEAPV

Reference: patent US20030162221A1
